Reference: paper PMC3088709, “Phosphorylation of the Yeast γ-Tubulin Tub4 Regulates Microtubule Function” (PLoS ONE, 2011)
No constants are given. Whether binding was seen depends on the method and setting. Binding seen in cells or lysates may run through a third protein. These calls come from enrichment with a bait or labelling near it, and not all partners need be listed. Where a sequence is shown, tags or fusion partners need not be part of it.

Molecular target: T1, Spc97 fused to the tandem affinity purification (TAP) tag (S. cerevisiae) (UniProt P38863)
T1 sequence: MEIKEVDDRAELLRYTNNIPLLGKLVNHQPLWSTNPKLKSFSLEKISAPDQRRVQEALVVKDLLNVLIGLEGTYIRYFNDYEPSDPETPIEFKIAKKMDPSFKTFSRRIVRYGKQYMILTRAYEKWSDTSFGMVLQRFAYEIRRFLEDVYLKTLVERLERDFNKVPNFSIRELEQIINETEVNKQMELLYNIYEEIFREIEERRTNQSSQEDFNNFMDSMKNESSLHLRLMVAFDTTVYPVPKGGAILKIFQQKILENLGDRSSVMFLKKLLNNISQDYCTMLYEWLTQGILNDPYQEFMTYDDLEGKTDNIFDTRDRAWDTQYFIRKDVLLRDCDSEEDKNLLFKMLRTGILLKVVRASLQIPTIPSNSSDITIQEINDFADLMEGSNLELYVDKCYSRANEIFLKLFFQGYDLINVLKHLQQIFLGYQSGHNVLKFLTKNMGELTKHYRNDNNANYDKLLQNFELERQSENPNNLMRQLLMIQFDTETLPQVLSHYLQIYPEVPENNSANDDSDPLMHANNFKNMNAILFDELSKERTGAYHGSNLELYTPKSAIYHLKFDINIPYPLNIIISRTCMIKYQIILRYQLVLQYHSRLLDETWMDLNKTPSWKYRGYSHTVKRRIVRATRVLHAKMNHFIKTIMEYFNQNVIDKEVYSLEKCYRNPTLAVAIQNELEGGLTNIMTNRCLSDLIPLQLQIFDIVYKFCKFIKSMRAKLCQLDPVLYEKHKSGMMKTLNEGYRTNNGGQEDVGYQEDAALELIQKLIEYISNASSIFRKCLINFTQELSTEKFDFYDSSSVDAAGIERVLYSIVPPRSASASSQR
Test: affinity purification with mass spectrometry; Spc97-TAP purified on an IgG-Sepharose column from lysate of yeast after Gal1-induced co-expression of SPC97-TAP, SPC98 and TUB4; lysis buffer 20 mM Tris/HCl pH 7.5, 0.1 M NaCl, 0.1% NP-40; wash with 0.6 M potassium acetate; SDS-PAGE with Coomassie Blue and mass spectrometry

binding: binds
B1: Spc72 (protein, UniProt P39723 1-622)
chain: MVRRWIPSGRHLRNNDNTGDDDDSEFTNSMDSGMSIPSLRDSMTTRSSHNDPIKPALMNDSNKVKNLEKELTNAKIKIQVLYEYIRRIPNKDGNAPSLGNDTDFRNSIIEGLNLEINKLKQDLKAKEVEYQDTLQFVQENLENSESIVNTINHLLSFILTHFNEQDENAHLLDKEERETLEETLELSSDYVLEKMDTLSKFIIQFLQDFLHSKSRAESKQDKEEFLSLAQSSPAGSQLESRDSPSSKEENTDGGYQNDEIHDSNNHIDTENVMANSTSLPISAVESRFEKTLDTQLEIVIENLHKEYDQFINSIRLKFEKSQKLEKIIASKLNEQSHLLDSLELEENSSSVIEKQDHLISQLKEKIESQSVLINNLEKLKEDIIKMKQNEKVLTKELETQTKINKLKENNWDSYINDLEKQINDLQIDKSEEFHVIQNQLDKLDLENYQLKNQLNTLDNQKLILSQYESNFIKFNQNLLLHLDSIFNILQKILQESSIAQFDRKMKSIKSVPNALKNLNLIQPKLESLYTFIETALESIINSYISSLISMETPEQPHQQGNELTATPNKELTLRIEELQRRWISERERRKLDANASEARIKALEQENESLRSKLFNLSINNP
